Experimental data reported in the supplement of paper PMC10849652.
This is one part of the list.

By UniProt entry, the sequences of proteins in these tests, tags left out. Where a name states a change or a piece, a line headed by the entry shows the natural chain unless it says otherwise.
UniProt Q9Y4E5: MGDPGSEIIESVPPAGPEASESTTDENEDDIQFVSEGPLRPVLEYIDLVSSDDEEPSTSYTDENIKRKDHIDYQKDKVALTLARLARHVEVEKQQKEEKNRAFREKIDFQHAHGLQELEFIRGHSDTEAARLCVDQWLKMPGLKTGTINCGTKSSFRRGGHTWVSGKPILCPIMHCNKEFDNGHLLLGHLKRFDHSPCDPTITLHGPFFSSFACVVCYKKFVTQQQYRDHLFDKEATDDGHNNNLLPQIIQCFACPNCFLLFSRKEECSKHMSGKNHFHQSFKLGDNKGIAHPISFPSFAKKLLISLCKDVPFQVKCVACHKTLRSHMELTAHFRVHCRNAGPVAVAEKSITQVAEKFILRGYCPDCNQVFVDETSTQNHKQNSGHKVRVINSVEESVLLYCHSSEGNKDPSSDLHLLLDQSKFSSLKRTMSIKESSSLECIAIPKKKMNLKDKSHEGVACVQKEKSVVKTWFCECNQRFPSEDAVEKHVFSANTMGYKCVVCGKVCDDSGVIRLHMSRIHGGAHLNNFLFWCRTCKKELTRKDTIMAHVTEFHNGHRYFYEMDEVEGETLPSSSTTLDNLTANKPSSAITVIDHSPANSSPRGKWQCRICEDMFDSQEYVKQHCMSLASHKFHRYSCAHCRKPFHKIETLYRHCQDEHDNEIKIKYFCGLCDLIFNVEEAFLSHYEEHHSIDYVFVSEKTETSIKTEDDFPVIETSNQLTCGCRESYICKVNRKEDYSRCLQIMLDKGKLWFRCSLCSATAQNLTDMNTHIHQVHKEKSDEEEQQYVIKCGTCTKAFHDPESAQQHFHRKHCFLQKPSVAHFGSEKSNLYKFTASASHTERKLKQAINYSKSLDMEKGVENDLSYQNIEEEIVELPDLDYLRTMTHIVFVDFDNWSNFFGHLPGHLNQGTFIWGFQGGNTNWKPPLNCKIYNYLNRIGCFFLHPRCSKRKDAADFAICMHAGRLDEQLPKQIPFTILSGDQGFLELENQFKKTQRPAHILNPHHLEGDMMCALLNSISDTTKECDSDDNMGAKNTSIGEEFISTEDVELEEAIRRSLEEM
UniProt Q86UK7: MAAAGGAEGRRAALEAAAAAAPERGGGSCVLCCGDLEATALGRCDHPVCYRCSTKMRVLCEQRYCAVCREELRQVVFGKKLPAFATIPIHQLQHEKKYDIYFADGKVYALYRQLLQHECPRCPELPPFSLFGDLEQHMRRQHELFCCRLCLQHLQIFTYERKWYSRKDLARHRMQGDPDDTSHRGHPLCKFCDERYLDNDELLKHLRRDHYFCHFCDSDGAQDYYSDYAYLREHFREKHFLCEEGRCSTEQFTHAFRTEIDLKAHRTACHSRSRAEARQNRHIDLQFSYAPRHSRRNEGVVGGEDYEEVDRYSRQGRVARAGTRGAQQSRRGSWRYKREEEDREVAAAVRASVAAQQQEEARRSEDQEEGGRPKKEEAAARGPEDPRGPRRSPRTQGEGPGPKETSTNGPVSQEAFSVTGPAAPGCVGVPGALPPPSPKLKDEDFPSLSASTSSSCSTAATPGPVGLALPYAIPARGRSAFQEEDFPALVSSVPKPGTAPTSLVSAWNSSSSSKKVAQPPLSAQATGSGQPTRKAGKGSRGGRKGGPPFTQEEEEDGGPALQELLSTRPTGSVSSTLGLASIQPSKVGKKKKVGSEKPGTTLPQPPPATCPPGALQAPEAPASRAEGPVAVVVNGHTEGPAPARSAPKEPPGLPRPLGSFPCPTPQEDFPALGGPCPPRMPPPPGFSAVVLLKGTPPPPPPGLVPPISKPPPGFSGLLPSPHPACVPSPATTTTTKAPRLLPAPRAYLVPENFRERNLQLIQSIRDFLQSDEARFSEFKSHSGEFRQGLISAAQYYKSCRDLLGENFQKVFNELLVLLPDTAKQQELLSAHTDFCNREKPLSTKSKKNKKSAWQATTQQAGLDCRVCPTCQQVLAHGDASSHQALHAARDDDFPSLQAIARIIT
UniProt O60232: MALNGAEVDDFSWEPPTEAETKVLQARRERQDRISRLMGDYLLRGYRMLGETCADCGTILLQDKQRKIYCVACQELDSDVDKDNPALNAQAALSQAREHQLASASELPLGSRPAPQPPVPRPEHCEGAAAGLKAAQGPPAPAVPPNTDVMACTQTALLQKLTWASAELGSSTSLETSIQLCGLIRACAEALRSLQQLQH
UniProt Q9BRR0: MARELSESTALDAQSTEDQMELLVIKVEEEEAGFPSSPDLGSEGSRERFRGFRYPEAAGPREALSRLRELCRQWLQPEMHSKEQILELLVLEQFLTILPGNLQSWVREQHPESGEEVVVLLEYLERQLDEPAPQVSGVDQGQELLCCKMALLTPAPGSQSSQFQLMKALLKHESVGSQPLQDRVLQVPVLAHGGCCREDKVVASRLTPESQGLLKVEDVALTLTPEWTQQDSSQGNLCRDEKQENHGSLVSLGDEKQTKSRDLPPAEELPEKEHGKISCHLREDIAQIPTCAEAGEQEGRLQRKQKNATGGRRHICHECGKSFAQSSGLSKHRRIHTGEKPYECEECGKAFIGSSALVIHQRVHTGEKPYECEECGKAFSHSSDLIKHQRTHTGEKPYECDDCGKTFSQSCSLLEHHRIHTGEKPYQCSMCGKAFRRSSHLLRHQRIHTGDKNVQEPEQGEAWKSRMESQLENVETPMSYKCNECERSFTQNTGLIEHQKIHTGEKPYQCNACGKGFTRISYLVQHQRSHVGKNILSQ
UniProt Q8TCN5: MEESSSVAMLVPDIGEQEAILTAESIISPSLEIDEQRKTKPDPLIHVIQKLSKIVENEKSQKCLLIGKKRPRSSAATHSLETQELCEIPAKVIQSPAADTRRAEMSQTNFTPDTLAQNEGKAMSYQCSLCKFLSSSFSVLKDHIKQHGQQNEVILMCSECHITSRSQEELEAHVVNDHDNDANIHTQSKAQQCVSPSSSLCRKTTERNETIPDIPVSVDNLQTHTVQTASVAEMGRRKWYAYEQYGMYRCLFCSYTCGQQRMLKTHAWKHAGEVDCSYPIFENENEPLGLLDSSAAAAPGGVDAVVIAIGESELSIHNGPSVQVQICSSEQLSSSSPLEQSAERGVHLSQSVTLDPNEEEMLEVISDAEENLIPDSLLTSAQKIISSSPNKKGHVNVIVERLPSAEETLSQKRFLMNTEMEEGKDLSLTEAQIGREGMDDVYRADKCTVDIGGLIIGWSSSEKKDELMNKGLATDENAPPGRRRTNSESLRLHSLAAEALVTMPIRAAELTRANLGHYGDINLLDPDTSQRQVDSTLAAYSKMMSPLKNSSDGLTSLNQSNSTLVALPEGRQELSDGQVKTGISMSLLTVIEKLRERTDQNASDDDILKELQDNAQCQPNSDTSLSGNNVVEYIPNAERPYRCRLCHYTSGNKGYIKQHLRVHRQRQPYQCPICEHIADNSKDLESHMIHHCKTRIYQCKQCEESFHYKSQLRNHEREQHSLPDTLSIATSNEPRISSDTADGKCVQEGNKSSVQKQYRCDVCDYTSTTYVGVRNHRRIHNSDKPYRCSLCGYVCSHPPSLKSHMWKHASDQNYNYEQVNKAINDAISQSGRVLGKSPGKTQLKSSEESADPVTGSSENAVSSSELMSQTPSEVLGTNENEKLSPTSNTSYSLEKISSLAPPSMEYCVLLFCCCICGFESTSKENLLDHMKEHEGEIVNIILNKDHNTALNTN
UniProt Q969S3: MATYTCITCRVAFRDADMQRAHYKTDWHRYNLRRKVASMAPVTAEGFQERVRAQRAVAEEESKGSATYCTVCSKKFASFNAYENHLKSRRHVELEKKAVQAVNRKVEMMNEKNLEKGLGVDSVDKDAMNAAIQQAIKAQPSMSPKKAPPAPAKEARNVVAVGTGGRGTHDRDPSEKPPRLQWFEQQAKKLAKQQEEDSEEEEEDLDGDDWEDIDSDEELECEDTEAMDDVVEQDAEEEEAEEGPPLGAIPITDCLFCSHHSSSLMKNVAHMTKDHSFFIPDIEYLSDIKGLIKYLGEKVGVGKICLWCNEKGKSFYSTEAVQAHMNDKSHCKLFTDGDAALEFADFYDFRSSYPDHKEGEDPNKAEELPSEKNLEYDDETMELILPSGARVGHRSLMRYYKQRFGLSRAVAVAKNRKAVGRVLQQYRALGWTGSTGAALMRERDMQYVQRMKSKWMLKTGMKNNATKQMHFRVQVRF
UniProt Q9UQR1: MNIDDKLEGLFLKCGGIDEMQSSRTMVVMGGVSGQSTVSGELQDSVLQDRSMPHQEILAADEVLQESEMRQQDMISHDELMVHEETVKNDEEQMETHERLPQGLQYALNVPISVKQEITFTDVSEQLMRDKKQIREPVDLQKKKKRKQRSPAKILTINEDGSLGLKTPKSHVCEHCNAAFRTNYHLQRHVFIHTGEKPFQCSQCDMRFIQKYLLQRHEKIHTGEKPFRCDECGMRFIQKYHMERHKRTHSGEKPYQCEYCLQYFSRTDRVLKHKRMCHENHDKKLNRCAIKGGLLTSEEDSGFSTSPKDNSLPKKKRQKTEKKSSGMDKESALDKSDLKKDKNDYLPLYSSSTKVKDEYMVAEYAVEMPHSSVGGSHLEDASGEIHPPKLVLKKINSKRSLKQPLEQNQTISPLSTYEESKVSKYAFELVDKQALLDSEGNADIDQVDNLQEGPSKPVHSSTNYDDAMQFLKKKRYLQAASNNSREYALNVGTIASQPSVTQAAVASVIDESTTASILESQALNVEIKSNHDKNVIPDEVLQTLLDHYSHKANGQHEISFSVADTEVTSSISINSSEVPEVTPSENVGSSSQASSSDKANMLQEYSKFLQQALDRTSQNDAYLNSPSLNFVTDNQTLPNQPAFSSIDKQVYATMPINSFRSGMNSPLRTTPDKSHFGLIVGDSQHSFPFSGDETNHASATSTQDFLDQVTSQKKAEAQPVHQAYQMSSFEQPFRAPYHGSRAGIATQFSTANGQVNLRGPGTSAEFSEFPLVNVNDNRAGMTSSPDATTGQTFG
UniProt Q9UK10: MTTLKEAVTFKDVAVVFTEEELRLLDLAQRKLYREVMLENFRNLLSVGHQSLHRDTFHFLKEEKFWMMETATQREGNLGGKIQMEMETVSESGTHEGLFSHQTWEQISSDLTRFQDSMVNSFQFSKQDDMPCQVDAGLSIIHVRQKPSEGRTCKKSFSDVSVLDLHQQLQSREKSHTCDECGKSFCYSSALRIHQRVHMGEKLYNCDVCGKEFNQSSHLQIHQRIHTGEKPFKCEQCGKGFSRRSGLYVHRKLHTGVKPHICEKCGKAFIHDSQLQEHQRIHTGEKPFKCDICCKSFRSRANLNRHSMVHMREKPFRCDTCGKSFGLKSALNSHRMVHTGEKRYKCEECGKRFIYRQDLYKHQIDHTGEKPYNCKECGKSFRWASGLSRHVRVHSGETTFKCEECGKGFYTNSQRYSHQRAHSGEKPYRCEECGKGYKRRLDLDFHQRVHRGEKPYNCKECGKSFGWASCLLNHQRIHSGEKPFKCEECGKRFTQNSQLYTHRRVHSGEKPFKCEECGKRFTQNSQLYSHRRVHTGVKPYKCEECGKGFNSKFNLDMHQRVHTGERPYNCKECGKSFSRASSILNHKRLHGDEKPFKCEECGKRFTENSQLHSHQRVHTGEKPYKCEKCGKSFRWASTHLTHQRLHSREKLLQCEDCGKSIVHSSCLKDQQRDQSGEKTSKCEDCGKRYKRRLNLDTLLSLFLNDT
UniProt Q6ZMS4: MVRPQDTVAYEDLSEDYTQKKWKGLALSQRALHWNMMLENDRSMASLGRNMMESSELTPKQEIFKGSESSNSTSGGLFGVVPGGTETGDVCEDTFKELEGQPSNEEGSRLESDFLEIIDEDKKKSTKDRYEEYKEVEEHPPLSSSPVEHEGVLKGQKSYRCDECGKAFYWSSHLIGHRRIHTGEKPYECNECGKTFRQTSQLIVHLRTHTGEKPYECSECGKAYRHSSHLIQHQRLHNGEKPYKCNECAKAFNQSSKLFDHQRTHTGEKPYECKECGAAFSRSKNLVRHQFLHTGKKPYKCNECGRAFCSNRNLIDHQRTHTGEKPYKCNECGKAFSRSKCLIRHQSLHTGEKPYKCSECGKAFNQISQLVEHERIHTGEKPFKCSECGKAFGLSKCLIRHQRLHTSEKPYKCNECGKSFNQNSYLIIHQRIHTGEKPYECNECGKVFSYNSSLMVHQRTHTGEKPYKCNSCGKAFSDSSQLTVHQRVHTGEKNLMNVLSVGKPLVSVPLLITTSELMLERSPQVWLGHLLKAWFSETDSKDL
UniProt O00488: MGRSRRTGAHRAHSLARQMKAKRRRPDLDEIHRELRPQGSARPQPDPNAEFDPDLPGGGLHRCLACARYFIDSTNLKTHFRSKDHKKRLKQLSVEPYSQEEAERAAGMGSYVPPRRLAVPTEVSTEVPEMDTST
UniProt O95229: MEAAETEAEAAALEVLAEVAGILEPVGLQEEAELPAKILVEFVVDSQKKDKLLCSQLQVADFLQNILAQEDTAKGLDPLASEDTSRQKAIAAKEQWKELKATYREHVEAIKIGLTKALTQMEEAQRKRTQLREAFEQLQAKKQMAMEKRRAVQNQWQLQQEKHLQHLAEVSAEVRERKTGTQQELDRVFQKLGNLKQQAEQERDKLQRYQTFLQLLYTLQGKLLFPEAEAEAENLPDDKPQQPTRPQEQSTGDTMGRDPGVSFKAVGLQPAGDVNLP

Key:
Experiment in all cases: log2 fold change, soluble protein after heating vs DMSO (PISA); higher = thermal stabilisation; K562 lysate, 10 uM; active = over 0.2 and 3.5 SD of the protein, either way, in both replicates (recomputed)
vemurafenib = compound: CCCS(=O)(=O)Nc1ccc(F)c(C(=O)c2c[nH]c3ncc(-c4ccc(Cl)cc4)cc23)c1F [vemurafenib]
Summary of the method: (§1)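 K562 pellets were dounce-homogenised in PBS pH 7.4 with 1 mM MgCl2, and the crude extract at 1 mg/mL protein was treated with 10 μM compound for 30 min. Aliquots were heated for 3 min across 48°C-58°C, pooled, and brought to 0.5% NP-40 at 4°C; soluble protein was the supernatant after 21,000xg for 90 min. Soluble protein was quantified by TMTpro 16plex LC-MS/MS with channel sums equalised, and reported as log2 fold change in thermal stability against DMSO controls, with values from duplicates.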

[1] = compound: CCCS(=O)(=O)Nc1ccc(F)c(C(=O)c2c[nH]c3ncc(Cl)cc23)c1F
Summary of the method: as §1

barasertib = compound: CCN(CCCOc1ccc2c(Nc3cc(CC(=O)Nc4cccc(F)c4)[nH]n3)ncnc2c1)CCOP(=O)(O)O [barasertib]
Summary of the method: as §1

[2] = compound: CC[C@@H]1C(=O)N(C)c2cnc(Nc3ccc(C(=O)NC4CCN(C)CC4)cc3OC)nc2N1C1CCCC1
Summary of the method: as §1

volasertib = compound: CC[C@@H]1C(=O)N(C)c2cnc(Nc3ccc(C(=O)N[C@H]4CC[C@H](N5CCN(CC6CC6)CC5)CC4)cc3OC)nc2N1C(C)C [volasertib]
Summary of the method: as §1

[3] = compound: CCn1c(C(=O)N(C2CC2)C2CC2)cc2c3c(ncn3C)c(Nc3cc(C)n(C)n3)nc21
Summary of the method: as §1

[4] = compound: CCn1cc(-c2ccnc3[nH]c(-c4cccc(CN(C)C)c4)cc23)c(-c2ccc(NC(=O)N(C)C)cc2)n1
Summary of the method: as §1

[5] = compound: CN1CCC(CNc2ccc3ncc(-c4cccc(OC(F)(F)F)c4)n3n2)CC1
Summary of the method: as §1

saracatinib = compound: CN1CCN(CCOc2cc(OC3CCOCC3)c3c(Nc4c(Cl)ccc5c4OCO5)ncnc3c2)CC1 [saracatinib]
Summary of the method: as §1

sotrastaurin = compound: CN1CCN(c2nc(C3=C(c4c[nH]c5ccccc45)C(=O)NC3=O)c3ccccc3n2)CC1 [sotrastaurin]
Summary of the method: as §1

alvocidib = compound: CN1CC[C@H](c2c(O)cc(O)c3c(=O)cc(-c4ccccc4Cl)oc23)[C@H](O)C1 [alvocidib]
Summary of the method: as §1

Tubastatin A = compound: CN1CCc2c(c3ccccc3n2Cc2ccc(C(=O)NO)cc2)C1 [Tubastatin A]
Summary of the method: as §1

[6] = compound: CNC(=O)C1=CC=CC=C1NC2=NC(=NC=C2Cl)NC3=C(C=C(C=C3)N4CCOCC4)OC
Summary of the method: as §1

defactinib = compound: CNC(=O)c1ccc(Nc2ncc(C(F)(F)F)c(NCc3nccnc3N(C)S(C)(=O)=O)n2)cc1 [defactinib]
Summary of the method: as §1

[7] = compound: CNc1nc(-c2ccc3c(N)n[nH]c3c2)cc(N2C[C@@H](C(=O)NC3CCCCC3)CC[C@H]2C)n1
Summary of the method: as §1

encorafenib = compound: COC(=O)N[C@@H](C)CNc1nccc(-c2cn(C(C)C)nc2-c2cc(Cl)cc(NS(C)(=O)=O)c2F)n1 [encorafenib]
Summary of the method: as §1

[8] = compound: COC(=O)[C@H](CCSC)NC(=O)C1=C(C=C(C=C1)NC[C@H](CS)N)C2=CC=CC=C2
Summary of the method: as §1

alisertib = compound: COc1cc(Nc2ncc3c(n2)-c2ccc(Cl)cc2C(c2c(F)cccc2OC)=NC3)ccc1C(=O)O [alisertib]
Summary of the method: as §1

[9] = compound: COc1cc2nc(-c3cc(F)ccc3O)nc(N[C@@H]3CNC[C@H]3C(C)(C)O)c2cc1OC
Summary of the method: as §1

gefitinib = compound: COc1cc2ncnc(Nc3ccc(F)c(Cl)c3)c2cc1OCCCN1CCOCC1 [gefitinib]
Summary of the method: as §1

Measured: log2 fold change

ZNF451 (UniProt Q9Y4E5)
inactive: vemurafenib -0.013 | [1] 0.02 | barasertib 0.019 | [2] 0.066 | volasertib -0.063 | [3] -0.022 | [4] -0.047 | [5] -0.048 | saracatinib 0.039 | sotrastaurin 0.002 | alvocidib -0.011 | Tubastatin A -0.121 | [6] 0.027 | defactinib 0 | [7] -0.014 | encorafenib -0.03 | [8] 0.07 | alisertib 0.008 | [9] -0.012 | gefitinib -0.009

ZNF598 isoform 3 (UniProt Q86UK7)
inactive: vemurafenib 0.022 | [1] 0.036 | barasertib 0.019 | [2] 0.067 | volasertib -0.032 | [3] 0.017 | [4] -0.011 | [5] 0.001 | saracatinib -0.008 | sotrastaurin 0.014 | alvocidib -0.01 | Tubastatin A -0.095 | [6] 0.025 | defactinib 0.004 | [7] 0.015 | encorafenib 0.004 | [8] -0.039 | alisertib 0.009 | [9] 0.012 | gefitinib 0.007

ZNRD2 (UniProt O60232)
inactive: vemurafenib -0.039 | [1] -0.015 | barasertib 0.058 | [2] -0.055 | volasertib 0.077 | [3] 0.051 | [4] -0.081 | [5] -0.014 | saracatinib 0.027 | sotrastaurin -0.024 | alvocidib 0.055 | Tubastatin A 0.092 | [6] 0.072 | defactinib 0.165 | [7] -0.069 | encorafenib 0.051 | [8] -0.067 | alisertib 0.011 | [9] -0.007 | gefitinib -0.15

ZNF638 (UniProt Q14966)
inactive: vemurafenib -0.006 | [1] 0.011 | barasertib -0.032 | [2] 0.015 | volasertib 0.011 | [3] -0.055 | [4] 0.031 | [5] -0.036 | saracatinib 0.032 | sotrastaurin 0.004 | alvocidib 0 | Tubastatin A 0.008 | [6] 0.018 | defactinib -0.006 | [7] 0.03 | encorafenib 0.028 | [8] 0.099 | alisertib 0.002 | [9] 0.019 | gefitinib -0.01

ZKSCAN3 (UniProt Q9BRR0)
inactive: vemurafenib 0.108 | [1] 0.308 | barasertib 0.076 | [2] 0.142 | volasertib -0.306 | [3] 0.056 | [4] -0.167 | [5] 0.088 | saracatinib -0.035 | sotrastaurin -0.006 | alvocidib -0.078 | Tubastatin A -0.035 | [6] 0.029 | defactinib -0.232 | [7] 0.014 | encorafenib -0.028 | [8] -0.041 | [9] 0.093

ZNF609 (UniProt O15014)
inactive: vemurafenib 0.165 | [1] 0.033 | barasertib 0.027 | [2] 0.011 | volasertib 0.005 | [3] 0.022 | [4] -0.014 | [5] 0.064 | saracatinib 0.004 | sotrastaurin 0.013 | alvocidib -0.028 | Tubastatin A -0.044 | [6] 0.02 | defactinib -0.026 | [7] 0.074 | encorafenib 0.002 | [8] 0.013 | alisertib -0.01 | [9] 0.018 | gefitinib -0.002

3 consecutive entries out of the list so far:
ZNF451 (UniProt Q9Y4E5)
inactive: vemurafenib -0.013 | [1] 0.02 | barasertib 0.019 | [2] 0.066 | volasertib -0.063 | [3] -0.022 | [4] -0.047 | [5] -0.048 | saracatinib 0.039 | sotrastaurin 0.002 | alvocidib -0.011 | Tubastatin A -0.121 | [6] 0.027 | defactinib 0 | [7] -0.014 | encorafenib -0.03 | [8] 0.07 | alisertib 0.008 | [9] -0.012 | gefitinib -0.009

ZNF598 isoform 3 (UniProt Q86UK7)
inactive: vemurafenib 0.022 | [1] 0.036 | barasertib 0.019 | [2] 0.067 | volasertib -0.032 | [3] 0.017 | [4] -0.011 | [5] 0.001 | saracatinib -0.008 | sotrastaurin 0.014 | alvocidib -0.01 | Tubastatin A -0.095 | [6] 0.025 | defactinib 0.004 | [7] 0.015 | encorafenib 0.004 | [8] -0.039 | alisertib 0.009 | [9] 0.012 | gefitinib 0.007

ZNRD2 (UniProt O60232)
inactive: vemurafenib -0.039 | [1] -0.015 | barasertib 0.058 | [2] -0.055 | volasertib 0.077 | [3] 0.051 | [4] -0.081 | [5] -0.014 | saracatinib 0.027 | sotrastaurin -0.024 | alvocidib 0.055 | Tubastatin A 0.092 | [6] 0.072 | defactinib 0.165 | [7] -0.069 | encorafenib 0.051 | [8] -0.067 | alisertib 0.011 | [9] -0.007 | gefitinib -0.15

Later entries

ZNF507 (UniProt Q8TCN5)
inactive: vemurafenib -0.055 | barasertib 0.043 | [2] 0.144 | [3] 0.044 | [4] 0.035 | [5] -0.045 | saracatinib 0.019 | sotrastaurin -0.034 | alvocidib -0.032 | Tubastatin A -0.029 | [6] -0.001 | defactinib -0.032 | [7] -0.039 | encorafenib -0.017 | [8] 0.08 | alisertib -0.015 | gefitinib 0.018

ZNF622 (UniProt Q969S3)
inactive: vemurafenib 0.018 | [1] 0.01 | barasertib 0.026 | [2] 0.028 | volasertib -0.031 | [3] -0.003 | [4] -0.102 | [5] 0.003 | saracatinib 0.008 | sotrastaurin -0.02 | alvocidib 0.043 | Tubastatin A 0.028 | [6] 0.009 | defactinib -0.015 | [7] -0.033 | encorafenib 0.004 | [8] -0.003 | alisertib -0.017 | [9] -0.009 | gefitinib -0.011

ZNF148 (UniProt Q9UQR1)
inactive: vemurafenib -0.014 | barasertib 0.184 | [2] 0.068 | [3] 0.033 | [4] -0.247 | [5] 0.036 | saracatinib 0.036 | sotrastaurin -0.045 | alvocidib -0.322 | Tubastatin A -0.001 | [6] 0.009 | defactinib -0.043 | [7] -0.027 | encorafenib 0.024 | [8] -0.025 | alisertib -0.01 | gefitinib -0.218

ZNF217 (UniProt O75362)
inactive: vemurafenib 0.043 | [1] 0.019 | barasertib 0.047 | [2] 0.099 | volasertib -0.021 | [3] -0.028 | [4] -0.021 | [5] 0.076 | saracatinib 0.013 | sotrastaurin 0.052 | alvocidib -0.144 | Tubastatin A -0.076 | [6] 0.009 | defactinib -0.045 | [7] -0.004 | encorafenib -0.06 | [8] -0.037 | alisertib 0.032 | [9] 0.219 | gefitinib -0.013

ZNF618 (UniProt B1ALC2)
inactive: vemurafenib 0.016 | [1] -0.005 | [2] 0.095 | volasertib 0.073 | [4] 0.108 | [5] 0.037 | saracatinib 0.215 | sotrastaurin -0.008 | alvocidib -0.059 | defactinib 0.068 | [7] 0.031 | encorafenib 0.012 | [8] -0.028 | alisertib -0.027 | [9] -0.019 | gefitinib -0.038

ZNF225 (UniProt Q9UK10)
inactive: vemurafenib 0.429 | barasertib 0.048 | [2] -0.018 | [3] -0.361 | saracatinib -0.05 | Tubastatin A 0.282 | [6] -0.088 | defactinib -0.172 | [7] 0.735 | encorafenib -0.023 | [8] 0.042

ZNF845 (UniProt Q96IR2)
inactive: vemurafenib 0.085 | [1] -0.024 | barasertib 0.088 | volasertib -0.044 | [3] 0.135 | [4] -0.012 | [5] 0.078 | saracatinib -0.019 | sotrastaurin -0.012 | alvocidib 0.011 | Tubastatin A -0.149 | [6] 0.314 | defactinib -0.001 | [7] 0.093 | alisertib -0.018 | [9] 0.035 | gefitinib 0.035

ZNF852 (UniProt Q6ZMS4)
inactive: vemurafenib 0.094 | [1] 0.005 | volasertib -0.148 | [4] -0.126 | [5] 0.079 | sotrastaurin 0.104 | alvocidib 0.013 | [6] -0.032 | defactinib 0.056 | [9] -0.096

ZNF593 (UniProt O00488)
inactive: vemurafenib 0.001 | [1] 0.037 | barasertib -0.026 | [2] -0.174 | volasertib -0.034 | [3] 0.078 | [4] -0.012 | [5] 0.016 | saracatinib -0.012 | sotrastaurin -0.105 | alvocidib -0.005 | Tubastatin A -0.07 | [6] -0.135 | defactinib 0.044 | [7] -0.011 | encorafenib -0.006 | [8] -0.088 | [9] 0.231

ZKSCAN8 (UniProt Q15776)
inactive: vemurafenib 0.049 | [1] -0.173 | [2] -0.019 | volasertib -0.17 | [3] -0.001 | saracatinib 0.028 | sotrastaurin 0.027 | Tubastatin A -0.053 | [6] 0.059 | defactinib 0.037 | [7] 0.009 | encorafenib 0.2 | [8] -0.206 | alisertib -0.084 | [9] -0.001 | gefitinib 0

ZWINT (UniProt O95229)
inactive: vemurafenib 0.013 | [1] 0.032 | barasertib 0.024 | [2] 0.041 | volasertib -0.012 | [3] -0.018 | [4] -0.005 | [5] 0.048 | saracatinib 0.013 | sotrastaurin 0.028 | alvocidib -0.002 | Tubastatin A 0.06 | [6] 0.019 | defactinib -0.025 | [7] 0.058 | encorafenib 0.023 | [8] -0.08 | alisertib 0.014 | [9] 0.022 | gefitinib 0.001

ZNF407 (UniProt Q9C0G0)
inactive: vemurafenib -0.03 | [1] -0.01 | barasertib 0.26 | [2] 0.152 | volasertib 0.027 | [3] 0.557 | [4] -0.121 | [5] 0.111 | saracatinib -0.225 | alvocidib -0.084 | Tubastatin A 0.099 | [6] 0.004 | defactinib -0.076 | [7] -0.149 | encorafenib -0.008 | [8] -0.035 | [9] 0.098
